Article PMC3350483, “Versatile Toolbox for High Throughput Biochemical and Functional Studies with Fluorescent Fusion Proteins” (PLoS ONE, 2012)
Results are given in words; binding and its absence hold for the method and conditions named.

Chains of the proteins cited; added tags and fusions are not shown. Lines headed by an entry give the natural chain unless they say otherwise; changes in a name come on top.
UniProt P13864: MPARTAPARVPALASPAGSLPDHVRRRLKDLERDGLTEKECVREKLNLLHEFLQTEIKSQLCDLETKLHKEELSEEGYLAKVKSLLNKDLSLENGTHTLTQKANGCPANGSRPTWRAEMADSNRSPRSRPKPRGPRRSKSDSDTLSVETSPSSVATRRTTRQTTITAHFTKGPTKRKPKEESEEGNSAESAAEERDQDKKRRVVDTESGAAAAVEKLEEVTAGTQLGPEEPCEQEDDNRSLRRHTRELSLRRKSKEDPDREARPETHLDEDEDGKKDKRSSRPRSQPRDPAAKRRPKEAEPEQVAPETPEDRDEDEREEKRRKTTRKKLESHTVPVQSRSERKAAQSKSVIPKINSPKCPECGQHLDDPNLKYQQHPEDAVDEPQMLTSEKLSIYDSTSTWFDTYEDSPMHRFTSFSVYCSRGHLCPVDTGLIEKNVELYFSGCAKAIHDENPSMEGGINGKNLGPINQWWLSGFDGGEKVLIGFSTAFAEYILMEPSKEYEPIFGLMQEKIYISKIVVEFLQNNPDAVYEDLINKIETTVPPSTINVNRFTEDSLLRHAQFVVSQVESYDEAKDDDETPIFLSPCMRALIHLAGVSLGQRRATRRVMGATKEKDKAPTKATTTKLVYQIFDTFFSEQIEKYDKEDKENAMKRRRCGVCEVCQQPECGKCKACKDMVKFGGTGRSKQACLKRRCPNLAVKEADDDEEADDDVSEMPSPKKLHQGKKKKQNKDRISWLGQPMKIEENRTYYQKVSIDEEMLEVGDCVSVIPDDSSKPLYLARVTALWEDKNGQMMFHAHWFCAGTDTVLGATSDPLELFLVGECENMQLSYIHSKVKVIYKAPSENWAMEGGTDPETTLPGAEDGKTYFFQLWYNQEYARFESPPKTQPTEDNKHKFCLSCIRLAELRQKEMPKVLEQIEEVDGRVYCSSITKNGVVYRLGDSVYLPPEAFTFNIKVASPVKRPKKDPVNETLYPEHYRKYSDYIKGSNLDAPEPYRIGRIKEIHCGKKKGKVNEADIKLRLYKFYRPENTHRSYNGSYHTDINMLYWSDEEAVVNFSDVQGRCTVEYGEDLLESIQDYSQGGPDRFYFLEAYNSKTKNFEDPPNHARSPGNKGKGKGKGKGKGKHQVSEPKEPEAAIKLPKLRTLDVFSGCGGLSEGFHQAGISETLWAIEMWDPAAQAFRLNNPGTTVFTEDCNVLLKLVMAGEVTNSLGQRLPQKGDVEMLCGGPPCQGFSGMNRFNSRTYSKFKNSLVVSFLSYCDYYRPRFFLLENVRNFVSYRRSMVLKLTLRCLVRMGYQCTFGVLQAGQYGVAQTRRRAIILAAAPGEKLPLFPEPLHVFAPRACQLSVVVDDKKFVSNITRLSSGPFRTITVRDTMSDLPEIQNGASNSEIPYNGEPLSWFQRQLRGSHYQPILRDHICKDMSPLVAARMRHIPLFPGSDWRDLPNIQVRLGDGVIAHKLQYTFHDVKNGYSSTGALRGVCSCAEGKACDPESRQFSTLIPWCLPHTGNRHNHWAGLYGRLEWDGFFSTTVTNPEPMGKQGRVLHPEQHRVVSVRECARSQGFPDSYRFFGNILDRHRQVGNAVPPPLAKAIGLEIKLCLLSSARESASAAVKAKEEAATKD
UniProt P18887: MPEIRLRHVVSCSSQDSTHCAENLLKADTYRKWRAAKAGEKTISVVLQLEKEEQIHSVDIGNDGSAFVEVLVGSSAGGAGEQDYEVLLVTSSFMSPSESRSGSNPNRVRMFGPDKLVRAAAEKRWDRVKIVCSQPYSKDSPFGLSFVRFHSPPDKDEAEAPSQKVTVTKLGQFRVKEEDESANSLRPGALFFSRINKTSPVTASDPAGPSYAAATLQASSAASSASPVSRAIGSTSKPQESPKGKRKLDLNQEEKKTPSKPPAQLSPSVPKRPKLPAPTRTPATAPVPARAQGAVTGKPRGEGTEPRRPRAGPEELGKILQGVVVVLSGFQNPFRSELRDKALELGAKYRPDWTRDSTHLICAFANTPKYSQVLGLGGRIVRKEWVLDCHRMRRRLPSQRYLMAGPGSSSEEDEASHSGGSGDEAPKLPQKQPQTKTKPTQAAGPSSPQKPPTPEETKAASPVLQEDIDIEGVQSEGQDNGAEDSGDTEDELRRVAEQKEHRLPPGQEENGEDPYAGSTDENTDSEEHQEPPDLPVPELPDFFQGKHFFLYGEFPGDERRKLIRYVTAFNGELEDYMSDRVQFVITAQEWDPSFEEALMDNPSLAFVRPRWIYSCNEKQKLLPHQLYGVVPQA

Molecular target: GFP-Dnmt1ΔPBD (Dnmt1 lacking the PBD domain) (UniProt P13864)
Assay: GFP-multiTrap plate binding assay, fluorescence read-out; GFP fusion held on the GFP-multiTrap plate, blocked with 3% milk, incubated with HEK293T cellular extract holding the RFP fusion for 30 min at RT; molar ratio of bound RFP fusion over GFP fusion by plate reader; only the target purified

- binding: no binding
Substance: RFP-Xrcc1 (from UniProt P18887 1-633)
